Some entries share one result that the patent states for a list of compounds.
Molecular target: T1, Mdm2/p53 binding (His-p53 and GST-Mdm2) (Homo sapiens, UniProt Q00987, L33E)
T1 construct: a Mdm2 partial protein, having Mdm2 amino acids at positions 25 to 108 with leucine residue 33 substituted by glutamic acid
Experiment: Mdm2/p53 binding assay (HTRF, time-resolved fluorescence)
Conditions: His-p53 (aa 1 to 132) and GST-Mdm2 (aa 25 to 108, L33E), 6.25 nM each; 25°C for 1 hour; sigmoid fitting; read-out: Mdm2/p53 binding inhibiting activity of IC50

By UniProt entry, the sequences of proteins in these tests, tags left out. Residues count along the entry.
UniProt Q00987, 25-108 L33E, species assumed: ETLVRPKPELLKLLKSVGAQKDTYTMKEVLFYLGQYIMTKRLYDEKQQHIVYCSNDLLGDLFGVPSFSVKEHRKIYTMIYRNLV

Row | SMILES | IC50
1 | CC[C@@H]1CNC2(CC2)CN1C(=O)[C@@H]1CCCN1C(=O)C1=C(C(C)C)N2C(=N[C@@](C)(c3ccc(Cl)nc3)[C@H]2c2ccc(Cl)c(F)c2)S1 [Example 62, (6R)-7-(1-{[(5R,6S)-5-(4-chloro-3-fluorophenyl)-6-(6-chloropyridin-3-yl)-3-isopropyl-6-methyl-5,6-dihydroimidazo[2,1-b][1,3]thiazol-2-yl]carbonyl}-L-prolyl)-6-ethyl-4,7-diazaspiro[2.5]octane] | < 200 nM
2 | CO[C@@H]1C[C@@H](C(=O)N2CC3(CC3)NC[C@@H]2C)N(C(=O)C2=C(C(C)C)N3C(=N[C@@](C)(c4ccc(Cl)nc4)[C@H]3c3ccc(Cl)c(F)c3)S2)C1 [Example 63, (6S)-7-[(4R)-1-{[(5R,6S)-5-(4-chloro-3-fluorophenyl)-6-(6-chloropyridin-3-yl)-3-isopropyl-6-methyl-5,6-dihydroimidazo[2,1-b][1,3]thiazol-2-yl]carbonyl}-4-methoxy-L-prolyl]-6-methyl-4,7-diazaspiro[2.5]octane] | < 200 nM
3 | CC(C)C1=C(C(=O)N2CCC[C@H]2C(=O)N2CC3(CC3)NC[C@H]2C)SC2=N[C@@](C)(c3ccc(Cl)nc3)[C@@H](c3ccc(Cl)c(F)c3)N21 [Example 64, (6R)-7-(1-{[(5R,6S)-5-(4-chloro-3-fluorophenyl)-6-(6-chloropyridin-3-yl)-3-isopropyl-6-methyl-5,6-dihydroimidazo[2,1-b][1,3]thiazol-2-yl]carbonyl}-L-prolyl)-6-methyl-4,7-diazaspiro[2.5]octane] | < 200 nM
4 | CC(C)C1=C(C(=O)N2[C@H](C)CC[C@H]2C(=O)N2CC3(CC3)N(C=O)C[C@@H]2C)SC2=N[C@@](C)(c3ccc(Cl)nc3)[C@@H](c3ccc(Cl)c(F)c3)N21 [Example 66, (6S)-7-[(5R)-1-{[(5R,6S)-5-(4-chloro-3-fluorophenyl)-6-(6-chloropyridin-3-yl)-3-isopropyl-6-methyl-5,6-dihydroimidazo[2,1-b][1,3]thiazol-2-yl]carbonyl}-5-methyl-L-prolyl]-6-methyl-4,7-diazaspiro[2.5]octane-4-carbaldehyde] | < 200 nM
5 | CC(=O)N1C[C@H](C)N(C(=O)[C@@H]2CCCN2C(=O)C2=C(C(C)C)N3C(=N[C@@](C)(c4ccc(Cl)nc4)[C@H]3c3ccc(Cl)c(F)c3)S2)CC12CC2 [Example 67, (6S)-4-acetyl-7-(1-{[(5R,6S)-5-(4-chloro-3-fluorophenyl)-6-(6-chloropyridin-3-yl)-3-isopropyl-6-methyl-5,6-dihydroimidazo[2,1-b][1,3]thiazol-2-yl]carbonyl}-L-prolyl)-6-methyl-4,7-diazaspiro[2.5]octane] | < 200 nM
6 | CC(C)C1=C(C(=O)N2C[C@@](C)(O)C[C@H]2C(=O)N2CC3(CC3)NC[C@@H]2C)SC2=N[C@@](C)(c3ccc(Cl)nc3)[C@@H](c3ccc(Cl)c(F)c3)N21 [Example 68, (3S,5S)-1-{[(5R,6S)-5-(4-chloro-3-fluorophenyl)-6-(6-chloropyridin-3-yl)-3-isopropyl-6-methyl-5,6-dihydroimidazo[2,1-b][1,3]thiazol-2-yl]carbonyl}-3-methyl-5-{[(6S)-6-methyl-4,7-diazaspiro[2.5]oct-7-yl]carbonyl}pyrrolidin-3-ol] | < 200 nM
7 | CC(C)C1=C(C(=O)N2C[C@@H]3C[C@@H]3[C@H]2C(=O)N2CC3(CC3)NC[C@@H]2C)SC2=N[C@@](C)(c3ccc(Cl)nc3)[C@@H](c3ccc(Cl)c(F)c3)N21 [Example 69, (65)-7-{[(1S,25,5R)-3-{[(5R,65)-5-(4-chloro-3-fluorophenyl)-6-(6-chloropyridin-3-yl)-3-isopropyl-6-methyl-5,6-dihydroimidazo[2,1-b][1,3]thiazol-2-yl]carbonyl}-3-azabicyclo[3.1.0]hex-2-yl]carbonyl}-6-methyl-4,7-diazaspiro[2.5]octane] | < 200 nM
8 | CC(C)C1=C(C(=O)N2[C@@H]3C[C@@H]3C[C@H]2C(=O)N2CC3(CC3)NC[C@@H]2C)SC2=N[C@@](C)(c3ccc(Cl)nc3)[C@@H](c3ccc(Cl)c(F)c3)N21 [Example 70, (6S)-7-{[(1R,3S,5R)-2-{[(5R,6S)-5-(4-chloro-3-fluorophenyl)-6-(6-chloropyridin-3-yl)-3-isopropyl-6-methyl-5,6-dihydroimidazo[2,1-b][1,3]thiazol-2-yl]carbonyl}-2-azabicyclo[3.1.0]hex-3-yl]carbonyl}-6-methyl-4,7-diazaspiro[2.5]octane] | < 200 nM
9 | CC(C)C1=C(C(=O)N2[C@H](C)CC[C@H]2C(=O)N2CCNC3(CC3)C2)SC2=N[C@@](C)(c3ccc(Cl)nc3)[C@@H](c3ccc(Cl)c(O)c3)N21 [Example 71, 2-chloro-5-[(5R,6S)-6-(6-chloropyridin-3-yl)-2-{[(2S,5R)-2-(4,7-diazaspiro[2.5]oct-7-ylcarbonyl)-5-methylpyrrolidin-1-yl]carbonyl}-3-isopropyl-6-methyl-5,6-dihydroimidazo[2,1-b][1,3]thiazol-5-yl]phenol] | < 200 nM
10 | COc1ccc([C@]2(C)N=C3SC(C(=O)N4[C@H](C)CC[C@H]4C(=O)N4CCNC5(CC5)C4)=C(C(C)C)N3[C@@H]2c2ccc(Cl)c(F)c2)cc1 [Example 72, 7-[(5R)-1-{[(5R,6S)-5-(4-chloro-3-fluorophenyl)-3-isopropyl-6-(4-methoxyphenyl)-6-methyl-5,6-dihydroimidazo[2,1-b][1,3]thiazol-2-yl]carbonyl}-5-methyl-L-prolyl]-4,7-diazaspiro[2.5]octane] | < 200 nM
11 | CCOc1ccc([C@]2(C)N=C3SC(C(=O)N4[C@H](C)CC[C@H]4C(=O)N4CCNC5(CC5)C4)=C(C(C)C)N3[C@@H]2c2ccc(Cl)c(F)c2)cn1 [Example 73, 7-[(5R)-1-{[(5R,6S)-5-(4-chloro-3-fluorophenyl)-6-(6-ethoxypyridin-3-yl)-3-isopropyl-6-methyl-5,6-dihydroimidazo [2,1-b] [1,3]-thiazol-2-yl]-carbonyl}-5-methyl-L-prolyl]-4,7-diazaspiro[2.5]octane] | < 200 nM
12 | CC(C)C1=C(C(=O)N2[C@H](C)CC[C@H]2C(=O)N2CCNC3(CC3)C2)SC2=N[C@@](C)(c3ccc(Cl)nc3)[C@@H](c3ccc(C(F)(F)F)c(F)c3)N21 [Example 74, 7-[(5R)-1-({(5R,6S)-6-(6-chloropyridin-3-yl)-5-[3-fluoro-4-(trifluoromethyl)phenyl]-3-isopropyl-6-methyl-5,6-dihydroimidazo[2,1-b][1,3]thiazol-2-yl}carbonyl)-5-methyl-L-prolyl]-4,7-diazaspiro[2.5]octane] | < 200 nM
13 | Cc1cc(Cl)ccc1[C@H]1N2C(=N[C@@]1(C)c1ccc(Cl)nc1)SC(C(=O)N1[C@H](C)CC[C@H]1C(=O)N1CCNC3(CC3)C1)=C2C(C)C [Example 75, 7-[(5R)-1-{[(5R,6S)-5-(4-chloro-2-methylphenyl) - 6-(6-chloropyridin-3-yl)-3-isopropyl-6-methyl-5,6-dihydroimidazo[2,1-b][1,3]thiazol-2-yl]carbonyl}-5-methyl-L-prolyl]-4,7-diazaspiro[2.5] octane] | < 200 nM
14 | CC(C)C1=C(C(=O)N2[C@H](C)CC[C@H]2C(=O)N2CCNC3(CC3)C2)SC2=N[C@@](C)(c3ccc(Cl)nc3)[C@@H](c3ccc(Cl)cc3O)N21 [Example 76, 5-chloro-2-[(5R,6S)-6-(6-chloropyridin-3-yl)-2-{[(2S,5R)-2-(4,7-diazaspiro[2.5]oct-7-ylcarbonyl)-5-methylpyrrolidin-1-yl]carbonyl}-3-isopropyl-6-methyl-5,6-dihydroimidazo[2,1-b] [1,3]thiazol-5-yl] phenol] | < 200 nM
15 | Cc1cc(Cl)c(F)cc1[C@H]1N2C(=N[C@@]1(C)c1ccc(Cl)nc1)SC(C(=O)N1CCC[C@H]1C(=O)N1CC3(CC3)NC[C@@H]1C)=C2C(C)C [Example 77, (6S)-7-(1-{[(5R,6S)-5-(4-chloro-5-fluoro-2-methylphenyl)-6-(6-chloropyridin-3-yl)-3-isopropyl-6-methyl-5,6-dihydroimidazo[2,1-b][1,3]thiazol-2-yl]carbonyl}-L-prolyl)-6-methyl-4,7-diazaspiro[2.5]octane] | < 200 nM
16 | CC(C)C1=C(C(=O)N2[C@H](C)CC[C@H]2C(=O)N2CCNC3(CC3)C2)SC2=N[C@@](C)(c3ccc(C(F)(F)F)cc3)[C@@H](c3ccc(Cl)c(F)c3)N21 [Example 78, 7-[(5R)-1-({(5R,6S)-5-(4-chloro-3-fluorophenyl)-3-isopropyl-6-methyl-6-[4-(trifluoromethyl)phenyl]-5,6-dihydroimidazo[2,1-b][1,3]thiazol-2-yl}carbonyl)-5-methyl-L-prolyl]-4,7-diazaspiro[2.5]octane] | < 200 nM
17 | CC(C)C1=C(C(=O)N2[C@H](C)CC[C@H]2C(=O)N2CCNC3(CC3)C2)SC2=N[C@@](C)(c3ccc(Cl)cc3F)[C@@H](c3ccc(Cl)c(F)c3)N21 [Example 79, 7-[(5R)-1-{[(5R,6S)-6-(4-chloro-2-fluorophenyl)-5-(4-chloro-3-fluorophenyl)-3-isopropyl-6-methyl-5,6-dihydroimidazo [2,1-b] [1,3]thiazol-2-yl]carbonyl}-5-methyl-L-prolyl]-4,7-diazaspiro [2.5] octane] | < 200 nM
18 | CC(C)C1=C(C(=O)N2[C@H](C)CC[C@H]2C(=O)N2CCNC3(CC3)C2)SC2=N[C@@](C)(c3ccc(C#N)cc3F)[C@@H](c3ccc(Cl)c(F)c3)N21 [Example 80, 4-[(5R,6S)-5-(4-chloro-3-fluorophenyl)-2-{[(2S,5R)-2-(4,7-diazaspiro[2.5]oct-7-ylcarbonyl)-5-methylpyrrolidin-1-yl]carbonyl}-3-isopropyl-6-methyl-5,6-dihydroimidazo [2,1-b] [1,3]thiazol-6-yl]-3-fluorobenzonitrile] | < 200 nM

From EP2298778A1, “IMIDAZOTHIAZOLE DERIVATIVE HAVING 4,7-DIAZASPIROÝ2.5¨OCTANE RING STRUCTURE” (Daiichi Sankyo Company, Limited, priority 2008, dated 2009)
